These are yes or no findings as the source states them, for the method shown. In cells and extracts the contact can be indirect. Binding can be weak; no strength is given.

Amino acid sequences for entries named in this document (tags omitted). A change or cut given only in a name is not applied to a line headed by its entry.
UniProt Q7Z2W4: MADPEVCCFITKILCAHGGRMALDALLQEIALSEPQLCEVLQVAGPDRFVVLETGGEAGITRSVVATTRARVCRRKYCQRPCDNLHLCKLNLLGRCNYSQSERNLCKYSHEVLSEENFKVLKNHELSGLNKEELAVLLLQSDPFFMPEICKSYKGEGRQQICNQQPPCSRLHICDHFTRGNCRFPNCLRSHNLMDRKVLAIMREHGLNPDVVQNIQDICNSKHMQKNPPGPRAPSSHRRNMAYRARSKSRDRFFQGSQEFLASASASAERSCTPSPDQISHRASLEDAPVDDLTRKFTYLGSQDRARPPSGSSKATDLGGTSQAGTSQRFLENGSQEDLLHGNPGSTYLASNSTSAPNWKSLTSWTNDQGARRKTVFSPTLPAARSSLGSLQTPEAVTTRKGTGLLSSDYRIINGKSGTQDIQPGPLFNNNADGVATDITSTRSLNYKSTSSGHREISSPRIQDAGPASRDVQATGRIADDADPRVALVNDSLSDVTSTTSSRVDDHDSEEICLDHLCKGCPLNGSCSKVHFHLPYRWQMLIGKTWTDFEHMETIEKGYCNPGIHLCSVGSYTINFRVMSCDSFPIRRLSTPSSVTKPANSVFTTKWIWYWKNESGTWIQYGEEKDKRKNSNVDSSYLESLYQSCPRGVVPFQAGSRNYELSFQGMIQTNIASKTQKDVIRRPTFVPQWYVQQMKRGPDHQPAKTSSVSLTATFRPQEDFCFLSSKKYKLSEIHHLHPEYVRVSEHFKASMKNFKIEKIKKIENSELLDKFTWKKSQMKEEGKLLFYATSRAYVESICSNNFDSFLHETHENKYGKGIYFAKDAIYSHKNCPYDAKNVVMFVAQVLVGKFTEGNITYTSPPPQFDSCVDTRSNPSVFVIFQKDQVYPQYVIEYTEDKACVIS

This assay deals with ZAP-S qMut (human) (UniProt Q7Z2W4). Description: co-IP; HEK293T ZAP-/- TRIM25-/- co-transfected, 48 h; ZAP precipitated from lysates (ZAP-L-FLAG with anti-FLAG; antibody for ZAP-S not stated); buffers as in the co-IP methods; western blot.

B1: OASL (protein, UniProt Q15646 1-514)
chain: MALMQELYSTPASRLDSFVAQWLQPHREWKEEVLDAVRTVEEFLRQEHFQGKRGLDQDVRVLKVVKVGSFGNGTVLRSTREVELVAFLSCFHSFQEAAKHHKDVLRLIWKTMWQSQDLLDLGLEDLRMEQRVPDALVFTIQTRGTAEPITVTIVPAYRALGPSLPNSQPPPEVYVSLIKACGGPGNFCPSFSELQRNFVKHRPTKLKSLLRLVKHWYQQYVKARSPRANLPPLYALELLTIYAWEMGTEEDENFMLDEGFTTVMDLLLEYEVICIYWTKYYTLHNAIIEDCVRKQLKKERPIILDPADPTLNVAEGYRWDIVAQRASQCLKQDCCYDNRENPISSWNVKRARDIHLTVEQRGYPDFNLIVNPYEPIRKVKEKIRRTRGYSGLQRLSFQVPGSERQLLSSRCSLAKYGIFSHTHIYLLETIPSEIQVFVKNPDGGSYAYAINPNSFILGLKQQIEDQQGLPKKQQQLEFQGQVLQDWLGLGIYGIQDSDTLILSKKKGEALFPAS
In the case of B1, the binding result is given as “binds”.
